The values below come from paper PMC7404038, “Chaperone-Like Activity of HSPB5: The Effects of Quaternary Structure Dynamics and Crowding” (International Journal of Molecular Sciences, 2020).

Results are given in words; binding and its absence hold for the method and conditions named. Some entries that bind do so weakly or less than the wild type. For part of these data: Tags and fused reporters may be left off the sequences shown.

In assay [1] the target is T1, Ca2+-depleted α-lactalbumin, P00711.
T1 chain: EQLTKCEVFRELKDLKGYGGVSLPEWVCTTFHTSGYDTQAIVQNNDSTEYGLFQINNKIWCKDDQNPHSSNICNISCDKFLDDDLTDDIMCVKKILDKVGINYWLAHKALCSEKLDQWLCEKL
In words: asymmetric field flow fractionation; αLa after 3 min incubation at 37 °C in the presence of 20 mM DTT, followed during 30 min; both purified. Particulars: remark: other sources report otherwise.

For assay [2] the target is unchanged. In words: AUC; sedimentation velocity, αLa 0.3 mg/mL with HSPB5 0-0.03 mg/mL, 0.1 M Na-phosphate buffer, pH 6.8, 10 mM NaCl, 20 mM DTT, 37 °C, 60,000 rpm, absorbance at 280 nm; both purified. Particulars: remark: other sources report otherwise.

B1: Ca2+-depleted α-lactalbumin, P00711 20-142 (protein)
chain: T1 chain
As for B1, the binding result in assay [1] and in assay [2] was “binds” in each case.

B2: Human full-length untagged HSPB5 (αB-crystallin) (natural protein, UniProt P02511 1-175, looked up)
chain: MDIAIHHPWIRRPFFPFHSPSRLFDQFFGEHLLESDLFPTSTSLSPFYLRPPSFLRAPSWFDTGLSEMRLEKDRFSVNLDVKHFSPEELKVKVLGDVIEVHGKHEERQDEHGFISREFHRKYRIPADVDPLTITSSLSSDGVLTVNGPRKQVSGPERTIPITREEKPAVTAAPKK
notes: αB-crystallin (HSPB5), human, full length, untagged; subunit mass 20.2 kDa as printed; Polydisperse oligomer whose size depends on concentration, temperature and crowding; the preparation was a gift of N. Sluchanko; also called the chaperone; source: expressed and purified as described earlier [104]
Take B2: the binding entry in assay [2] was “binds”.
